ChEMBL document CHEMBL1151987, “Glionitrin A, an antibiotic-antitumor metabolite derived from competitive interaction between abandoned mine microbes” (J Nat Prod, 2009)
≈ marks a conversion by molar mass, not a printed value.

Test system: Aspergillus fumigatus
Test: Antifungal activity against Aspergillus fumigatus HIC 6094
Format: functional

MIC: 1.56 µg/mL (≈ 1.69 µM)
SMILES: C[C@@H]1[C@H](O)[C@@H](C)/C=C/C=C/C=C/C=C/C=C/C=C/C=C/[C@H](O[C@@H]2O[C@H](C)[C@@H](O)[C@H](N)[C@@H]2O)C[C@@H]2O[C@](O)(C[C@@H](O)C[C@@H](O)[C@H](O)CC[C@@H](O)C[C@@H](O)CC(=O)O[C@H]1C)C[C@H](O)[C@H]2C(=O)O [AMPHOTERICIN B]
